PubChem BioAssay AID504774 | Drosophila RNAi Screening Center, 2011
In all, the deposit lists about 23,000 reagents; shown is an unselected part of those that have a named target and a result. 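Values are quantile-normalised luminescence on an arbitrary scale; higher means more cells surviving MMS.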 A plus sign joins genes that one reagent is predicted to hit. Not all columns of the deposit are shown.

Test: 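Genes required for cells to withstand methyl methanesulphonate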 (primary screen)
Cell system: Drosophila Kc167 cells
Reagents: long dsRNA against Drosophila genes, about 0.25 µg dsRNA per well
Duration: about 6 days: 3 days knock-down, then 3 days with or without MMS
Conditions: methyl methanesulphonate 0.004% (w/v) for 3 days after knock-down
Detection: 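Viability in wells given MMS, read as ATP luminescence, normalised by quantiles plate by plate and averaged across replicates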
Direction: mean viability with MMS and viability with MMS: higher = more surviving cells after MMS

target	DRSC id	mean viability with MMS	viability with MMS, replicate 1
DIP-delta (Dpr-interacting protein delta)	DRSC10214	3.50e6	3.96e6
DIP-delta (Dpr-interacting protein delta)	DRSC10450	3.70e6	4.30e6
pigeon	DRSC03565	3.60e6	4.02e6
CG33758	DRSC05158	3.57e6	4.14e6
Corp (Companion of reaper)	DRSC17771	3.66e6	4.16e6
CG15550	DRSC15088	3.48e6	3.99e6
CG42362 + CG42363	DRSC04265	3.43e6	3.80e6
CG31551	DRSC12159	3.78e6	4.20e6
CG31551	DRSC22403	3.78e6	4.23e6
CG42336	DRSC05273	3.49e6	3.90e6
CG42336	DRSC06332	3.60e6	4.09e6
CG42336	DRSC06333	3.77e6	3.81e6
CG12341	DRSC06133	3.44e6	3.88e6
CG32107	DRSC09221	3.58e6	4.19e6
CG3349	DRSC10359	3.75e6	4.38e6
CG12520	DRSC09892	3.56e6	4.08e6
CG17839	DRSC10290	3.47e6	4.00e6
CG17839	DRSC10291	3.46e6	3.91e6
Cpr72Eb (Cuticular protein 72Eb)	DRSC09870	3.45e6	4.00e6
Cka (Connector of kinase to AP-1)	DRSC03476	3.70e6	4.38e6
Cka (Connector of kinase to AP-1)	DRSC22858	3.27e6	3.88e6
NimC3 (Nimrod C3)	DRSC03556	3.71e6	4.20e6
NimC3 (Nimrod C3)	DRSC22528	3.34e6	3.88e6
Cont (Contactin)	DRSC12149	3.56e6	4.03e6
Gnpat (Glyceronephosphate O-acyltransferase)	DRSC16960	3.57e6	4.01e6
Or33b (Odorant receptor 33b)	DRSC03387	3.47e6	3.85e6
Vajk1	DRSC01882	3.66e6	4.11e6
Cp18 (Chorion protein 18)	DRSC11120	3.54e6	4.04e6
GstE11 (Glutathione S transferase E11)	DRSC06926	3.55e6	4.07e6
Tie (Tie-like receptor tyrosine kinase)	DRSC08104	3.47e6	4.11e6
Tie (Tie-like receptor tyrosine kinase)	DRSC08702	3.41e6	3.87e6
shn (schnurri)	DRSC05266	3.48e6	4.01e6
shn (schnurri)	DRSC07681	3.57e6	4.03e6
Uhg2 + snoRNA:Me18S-G1620 + snoRNA:U14:30Ea	DRSC01100	3.44e6	3.99e6
CG8419	DRSC03087	3.72e6	4.52e6
m-cup (mann-cup)	DRSC14430	3.62e6	4.18e6
CG33310	DRSC01897	3.68e6	4.24e6
CG34176	DRSC00435	3.56e6	3.94e6
CG6495	DRSC01993	3.55e6	4.14e6
or (orange)	DRSC04329	3.66e6	4.37e6
dpr10 (defective proboscis extension response 10)	DRSC09015	3.66e6	4.10e6
dpr10 (defective proboscis extension response 10)	DRSC09018	3.64e6	4.23e6
dpr10 (defective proboscis extension response 10)	DRSC10159	3.56e6	4.00e6
dpr10 (defective proboscis extension response 10)	DRSC10160	3.53e6	4.01e6
Golgin84 (Golgin-84)	DRSC15269	3.61e6	4.14e6

Laid out differently: 6 of the entries above.
target | DRSC id | mean viability with MMS | viability with MMS, replicate 1
GstE11 (Glutathione S transferase E11) | DRSC06926 | 3.55e6 | 4.07e6
Tie (Tie-like receptor tyrosine kinase) | DRSC08104 | 3.47e6 | 4.11e6
Tie (Tie-like receptor tyrosine kinase) | DRSC08702 | 3.41e6 | 3.87e6
shn (schnurri) | DRSC05266 | 3.48e6 | 4.01e6
shn (schnurri) | DRSC07681 | 3.57e6 | 4.03e6
Uhg2 + snoRNA:Me18S-G1620 + snoRNA:U14:30Ea | DRSC01100 | 3.44e6 | 3.99e6

Additional reagents:
target	DRSC id	mean viability with MMS	viability with MMS, replicate 1
Prosalpha6T (Proteasome alpha6 subunit, Testis-specific)	DRSC02873	3.52e6	4.03e6
bib (big brain)	DRSC03496	3.52e6	4.04e6
tral (trailer hitch)	DRSC09779	3.44e6	3.88e6
Pcl (Polycomblike)	DRSC07503	3.63e6	4.09e6
Col4a1 (Collagen type IV alpha 1)	DRSC03291	3.69e6	4.25e6
CG33221 (retired record)	DRSC21201	3.65e6	4.11e6
Tsp42Eq (Tetraspanin 42Eq)	DRSC06180	3.79e6	4.15e6
Jhbp2 (Juvenile hormone binding protein 2)	DRSC12292	3.28e6	3.66e6
CG7208	DRSC16212	3.63e6	3.95e6
Pngl (PNGase-like)	DRSC04914	3.67e6	4.22e6
CG10973	DRSC09813	3.51e6	4.03e6
CG7606	DRSC13246	3.68e6	4.20e6
CG7606	DRSC16268	3.32e6	3.70e6
CG46491	DRSC06565	3.73e6	4.20e6
CG46491	DRSC06566	3.51e6	3.90e6
Or10a (Odorant receptor 10a)	DRSC20264	3.56e6	4.09e6
CG16978	DRSC02553	3.57e6	4.04e6
PH4alphaEFB (prolyl-4-hydroxylase-alpha EFB)	DRSC14473	3.73e6	4.18e6
PH4alphaEFB (prolyl-4-hydroxylase-alpha EFB)	DRSC14950	3.52e6	4.02e6
CG3746	DRSC04412	3.66e6	4.11e6
CG7724	DRSC10905	3.61e6	4.13e6
heca (headcase)	DRSC16964	3.22e6	3.59e6
heca (headcase)	DRSC22990	3.54e6	3.94e6
